PubChem BioAssay AID743121 – NCATS, 2013
Here is an unselected part of about 26,000 reagents tested. 167 of them (0.63%) were called active. 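Calls are per gene from RSA p-values that are not deposited; an individual active-marked siRNA can sensitise only weakly.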 A number with no mark means an inactive call. Reagents against one gene are numbered here. Further read-outs or replicates are left out here. Reagent sequences are not shown.

- Assay: 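Partners whose loss is lethal together with topoisomerase I blockade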 (primary screen)
- Cells: MDA-MB-231 cells, a human breast cancer line
- Reagent: single siRNA against human genes, 20 nM siRNA (0.8 pmol per well)
- Timing: 120 h (drug added 48 h after transfection, read 72 h later)
- Challenge: camptothecin 20 nM (about EC30) for 72 h; vehicle 0.1% DMSO in parallel plates
- Measurement: 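CellTiter-Glo ATP signal, scaled to control siRNA as percent viability; sensitisation given as log2 of untreated divided by camptothecin-treated viability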
- Direction: log2 vehicle/camptothecin viability: higher = stronger sensitisation to camptothecin
- Rule for the call: 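Active genes have an RSA gene-level p-value below 0.001, computed from the ratios of their separate siRNAs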

log2 vehicle/camptothecin viability, by target gene and reagent
IL1RN (interleukin 1 receptor antagonist): #1 -0.0296; #2 0.0832; #3 0.23; #4 0.397
MYOC (myocilin): #1 -0.084; #2 0.377; #3 -0.0859; #4 -0.327
MAPKAPK5-AS1 (MAPKAPK5 antisense RNA 1): #1 0.0371; #2 -0.014; #3 -0.0257; #4 0.182
ANGPTL5 (angiopoietin like 5): #1 -0.0843; #2 -0.124; #3 -0.27
OTOF (otoferlin): #1 -0.512; #2 -0.235; #3 -0.148; #4 -0.579
HNF1B (HNF1 homeobox B): #1 -0.221; #2 -0.211; #3 -0.536; #4 -0.374
ING1 (inhibitor of growth family member 1): #1 -0.139; #2 0.0453; #3 0.0573
AAK1 (AP2 associated kinase 1): #1 -0.381; #2 -0.309; #3 -0.177; #4 -0.598
STK11 (serine/threonine kinase 11): #1 -0.228; #2 0.0184; #3 -0.213; #4 -0.0237
VCAM1 (vascular cell adhesion molecule 1): #1 -0.209; #2 0.202; #3 0.189; #4 -0.0355
PIK3CG: #1 -0.635; #2 -0.101; #3 -0.397; #4 -0.147
OR4C6 (olfactory receptor family 4 subfamily C member 6): #1 -0.163; #2 -0.0524; #3 0.0433; #4 0.247
